According to US20190071416A1, “COMPOUNDS FOR TREATMENT OF CANCER AND EPIGENETICS” (Agency For Science, Technology and Research, priority 2015, published 2019):
The structures given here were assigned with low confidence; some may be wrong.

The chains behind the UniProt entries cited, without tags or fusion partners.
UniProt Q9H7B4, whole entry: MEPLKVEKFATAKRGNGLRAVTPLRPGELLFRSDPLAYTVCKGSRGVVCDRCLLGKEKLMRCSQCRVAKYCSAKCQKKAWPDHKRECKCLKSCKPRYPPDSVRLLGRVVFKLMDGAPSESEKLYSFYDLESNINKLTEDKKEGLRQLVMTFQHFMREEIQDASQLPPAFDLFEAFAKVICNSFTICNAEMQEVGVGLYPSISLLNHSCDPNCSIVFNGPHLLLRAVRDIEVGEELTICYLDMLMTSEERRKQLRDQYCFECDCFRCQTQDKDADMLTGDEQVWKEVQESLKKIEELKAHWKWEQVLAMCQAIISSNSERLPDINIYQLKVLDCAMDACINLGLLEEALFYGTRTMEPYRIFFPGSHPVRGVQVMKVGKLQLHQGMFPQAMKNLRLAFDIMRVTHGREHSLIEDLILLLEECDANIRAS

target: SMYD3 (Homo sapiens, UniProt Q9H7B4); assay: SMYD3 biochemical assay (MTase-Glo, MAP3K2 peptide substrate); conditions: Table 3
Method: A SMYD3 enzymatic assay was developed using Promega's Methyltransferase-Glo™ reagents. In the assay, SMYD3 catalyzes the methylation of the MAP3K2 peptide substrate by transferring a methyl group from SAM to MAP3K2 peptide and further converts the SAM to SAH. The SMYD3 methyltransferase activity is measured based on the amount of SAH produced from the reaction through the use of coupling enzymes that convert the SAH to ATP. The MTase-Glo detection solution then catalyzes the formation of light from ATP.
For the IC50 determination, the compounds were incubated with 0.4 μM of SMYD3 enzyme for 30 min in low volume 384 well plates. A final concentration of 1.0 μM and 10 μM SAM and MAP3K2 peptide were added and further incubated for 30 min at room temperature before adding the MTase Glo and detection reagent. Reaction signals were detected using microplate readers on luminescent mode (Safire Tecan). The IC50 was determined by non-linear regression, using GraphPad Prism version, 5.03.

Structure (SMILES)	IC50 [nM]
CCCOC(=O)N1CCN(C(=O)c2ccc3c(Cl)c(C)c(-c4ccccc4)nc3c2)CC1	380
CCCCC(=O)N1CCN(C(=O)c2ccc3c(Cl)cc(-c4ccccc4)nc3c2)CC1	290
CCCOC(=O)N1CCN(C(=O)c2ccc3c(Cl)c(CC)cnc3c2)CC1	3200
C#Cc1ccc(C2CCc3c(nc4cc(C(=O)N5CCN(C(=O)OCCC)CC5)ccc4c3Cl)C2)nc1 (stereo not shown)	410
CCCOC(=O)N1CCN(C(=O)c2ccc3c(Cl)cc(-c4ccc(C)c(O)c4)nc3c2)CC1	280
O=C(c1ccc2c(Cl)c3c(nc2c1)CC(c1ccccn1)CC3)N1CCN(C(=O)c2cn(C3CC3)nn2)CC1 (stereo not shown)	82
C=CCOC(=O)N1CCN(C(=O)c2ccc3c(Cl)c(C)c(C)nc3c2)CC1	7700
